Results are given in words; binding and its absence hold for the method and conditions named. Some results given as binding are weak or reduced against the parent protein; the word gives no strength.
Biological target: T1, GST-tagged Abl SH3 domain fusion protein (human, UniProt P00519 61-121, limits assumed)
T1 construct: domain: SH3 domain; also called GST-Abl SH3; Abl1 SH3 domain; not shown: GST tag
Experiment: peptide microarray production run, GST-Abl SH3 5 uM overlaid

By UniProt entry, the sequences of proteins in these tests, tags left out. Where a name states a change or a piece, a line headed by the entry shows the natural chain unless it says otherwise. Residues count along the entry.
UniProt P00519, residues 61-121: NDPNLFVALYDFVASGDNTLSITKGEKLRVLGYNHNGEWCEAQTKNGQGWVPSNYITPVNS
UniProt Q9BYW2: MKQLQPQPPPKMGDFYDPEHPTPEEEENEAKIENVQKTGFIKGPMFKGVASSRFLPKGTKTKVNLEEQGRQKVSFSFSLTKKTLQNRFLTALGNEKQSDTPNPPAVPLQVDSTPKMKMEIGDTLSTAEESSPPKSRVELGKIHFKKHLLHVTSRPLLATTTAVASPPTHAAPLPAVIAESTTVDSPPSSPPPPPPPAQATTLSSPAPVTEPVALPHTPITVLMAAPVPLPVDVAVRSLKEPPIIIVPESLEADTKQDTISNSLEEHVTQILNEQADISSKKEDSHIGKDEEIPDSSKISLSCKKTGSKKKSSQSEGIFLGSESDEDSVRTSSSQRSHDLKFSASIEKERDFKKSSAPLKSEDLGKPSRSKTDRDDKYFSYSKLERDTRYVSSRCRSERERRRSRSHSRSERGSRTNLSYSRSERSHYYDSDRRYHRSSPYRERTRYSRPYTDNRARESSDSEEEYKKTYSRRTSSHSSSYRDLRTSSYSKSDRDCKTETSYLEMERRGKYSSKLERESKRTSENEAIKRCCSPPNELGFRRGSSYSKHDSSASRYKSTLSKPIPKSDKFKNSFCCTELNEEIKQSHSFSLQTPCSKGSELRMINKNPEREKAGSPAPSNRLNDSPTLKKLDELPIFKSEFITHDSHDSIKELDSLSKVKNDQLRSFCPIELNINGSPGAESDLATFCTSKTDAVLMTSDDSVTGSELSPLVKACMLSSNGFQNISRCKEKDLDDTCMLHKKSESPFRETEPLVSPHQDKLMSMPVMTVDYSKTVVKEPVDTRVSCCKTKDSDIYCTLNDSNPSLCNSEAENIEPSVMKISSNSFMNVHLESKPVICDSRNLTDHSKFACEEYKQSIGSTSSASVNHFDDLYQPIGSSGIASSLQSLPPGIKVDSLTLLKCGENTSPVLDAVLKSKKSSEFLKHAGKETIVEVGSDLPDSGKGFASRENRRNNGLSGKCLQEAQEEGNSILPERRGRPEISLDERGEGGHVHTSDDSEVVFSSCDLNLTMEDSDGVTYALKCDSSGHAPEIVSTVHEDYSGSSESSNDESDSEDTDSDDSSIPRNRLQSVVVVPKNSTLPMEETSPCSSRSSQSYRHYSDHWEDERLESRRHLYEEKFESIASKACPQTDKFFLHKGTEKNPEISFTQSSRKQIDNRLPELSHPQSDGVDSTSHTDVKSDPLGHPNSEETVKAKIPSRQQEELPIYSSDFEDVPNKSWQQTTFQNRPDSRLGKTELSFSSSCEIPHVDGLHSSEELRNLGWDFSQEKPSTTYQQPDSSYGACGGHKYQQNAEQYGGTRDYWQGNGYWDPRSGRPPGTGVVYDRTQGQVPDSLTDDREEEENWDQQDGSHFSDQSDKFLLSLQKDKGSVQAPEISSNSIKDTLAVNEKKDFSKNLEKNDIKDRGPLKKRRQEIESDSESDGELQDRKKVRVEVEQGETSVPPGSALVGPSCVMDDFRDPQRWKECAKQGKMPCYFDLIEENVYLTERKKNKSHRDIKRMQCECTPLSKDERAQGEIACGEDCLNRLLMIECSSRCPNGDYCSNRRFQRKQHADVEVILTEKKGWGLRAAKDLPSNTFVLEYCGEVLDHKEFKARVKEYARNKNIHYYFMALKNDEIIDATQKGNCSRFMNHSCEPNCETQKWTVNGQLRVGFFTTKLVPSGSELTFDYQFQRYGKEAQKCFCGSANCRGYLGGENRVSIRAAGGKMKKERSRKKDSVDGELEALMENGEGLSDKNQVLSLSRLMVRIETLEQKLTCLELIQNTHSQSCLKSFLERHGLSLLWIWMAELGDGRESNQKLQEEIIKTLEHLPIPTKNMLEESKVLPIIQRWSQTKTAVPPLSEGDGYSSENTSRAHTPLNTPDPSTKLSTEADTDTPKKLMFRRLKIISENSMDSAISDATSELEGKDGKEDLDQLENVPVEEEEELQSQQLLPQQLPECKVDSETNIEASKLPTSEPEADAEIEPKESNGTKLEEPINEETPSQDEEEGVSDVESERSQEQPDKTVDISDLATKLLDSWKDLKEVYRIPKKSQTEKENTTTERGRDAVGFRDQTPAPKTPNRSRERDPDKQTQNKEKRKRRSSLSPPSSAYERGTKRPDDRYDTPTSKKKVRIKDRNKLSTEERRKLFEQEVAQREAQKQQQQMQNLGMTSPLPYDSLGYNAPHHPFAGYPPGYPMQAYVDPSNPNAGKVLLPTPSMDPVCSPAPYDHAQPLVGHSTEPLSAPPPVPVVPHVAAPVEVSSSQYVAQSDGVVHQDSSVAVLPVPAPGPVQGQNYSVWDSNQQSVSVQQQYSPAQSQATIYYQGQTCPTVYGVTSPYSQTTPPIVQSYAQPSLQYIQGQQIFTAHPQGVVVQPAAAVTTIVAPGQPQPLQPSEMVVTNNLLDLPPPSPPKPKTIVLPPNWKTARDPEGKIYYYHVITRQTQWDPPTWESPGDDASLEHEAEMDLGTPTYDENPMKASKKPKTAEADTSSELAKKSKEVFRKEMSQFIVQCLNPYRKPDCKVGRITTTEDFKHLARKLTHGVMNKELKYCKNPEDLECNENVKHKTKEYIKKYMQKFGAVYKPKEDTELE

binding	Binder
binds	PSSPPPPPPP (peptide, UniProt Q9BYW2 187-196, looked up, N-terminal aminohexanoic acid (Ahx) linker) [SETD2 peptide (amino acid 187-196)]
binds	SPPSSPPPPP (peptide, UniProt Q9BYW2 185-194, looked up, N-terminal aminohexanoic acid (Ahx) linker) [SETD2 peptide (amino acid 185-194)]

Reference: US20130116146A1 (University of California, published 2013)
